According to paper PMC3830196, “Calmodulin-like protein AtCML3 mediates dimerization of peroxisomal processing protease AtDEG15 and contributes to normal peroxisome metabolism” (Plant Molecular Biology, 2013):
No constants are given. Whether binding was seen depends on the method and setting. Binding calls can cover weak binding; strength is not graded here.

Biological target: AtDEG15 missing the C-terminal domain (yeast fusion) (Arabidopsis thaliana)
Assay: yeast three-hybrid; full length AtDEG15 in pBridge, AtDEG15 constructs in pGAD424, AtCML3 from the second multiple cloning site of pBridge expressed (0 mM Met); lacZ reporter, Miller units; S. cerevisiae AH109

binding: binds
B1: AtCML3 expressed as the third protein in the yeast three-hybrid (protein, UniProt Q9SRR7 1-153)
chain: MDQAELARIFQMFDRNGDGKITKQELNDSLENLGIYIPDKDLVQMIEKIDLNGDGYVDIEEFGGLYQTIMEERDEEEDMREAFNVFDQNRDGFITVEELRSVLASLGLKQGRTLEDCKRMISKVDVDGDGMVNFKEFKQMMKGGGFAALGSNL
